{"source": "PubChem BioAssay AID1159584 (Peter MacCallum Cancer Centre, 2016)", "assay": "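Genes whose loss is lethal only together with E-cadherin loss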 (primary screen)", "system": "human MCF10A breast epithelial cells, parental and CDH1-null", "reagents": "siRNA against human genes", "read-out": "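Cell viability by CellTiter-Glo ATP luminescence, each line scaled to the mean of mock wells across plates, then CDH1-null over parental ratio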", "direction": "CDH1-null / parental viability ratio: higher = CDH1-null cells survive relatively better than parental", "note": "This is one part, drawn at random, of about 18,000 reagents. Not all columns of the deposit are shown. No sequences are given here. Not stated in the record: the amount of reagent, the time to read-out."}
{"gene knocked down": "TBC1D8B (TBC1 domain family member 8B)", "CDH1-null / parental viability ratio": 0.96}
{"gene knocked down": "TRAPPC5 (trafficking protein particle complex subunit 5)", "CDH1-null / parental viability ratio": 0.98}
{"gene knocked down": "PBX3 (PBX homeobox 3)", "CDH1-null / parental viability ratio": 0.88}
{"gene knocked down": "NFE2 (nuclear factor, erythroid 2)", "CDH1-null / parental viability ratio": 1.1}
{"gene knocked down": "VNN3P (vanin 3, pseudogene)", "CDH1-null / parental viability ratio": 0.89}
{"gene knocked down": "KNSTRN (kinetochore localized astrin (SPAG5) binding protein)", "CDH1-null / parental viability ratio": 1.08}
{"gene knocked down": "SHARPIN (SHANK associated RH domain interactor)", "CDH1-null / parental viability ratio": 1.1}
{"gene knocked down": "SCRIB (scribble planar cell polarity protein)", "CDH1-null / parental viability ratio": 0.93}
{"gene knocked down": "SERPINB5 (serpin family B member 5)", "CDH1-null / parental viability ratio": 0.72}
{"gene knocked down": "PFKL (phosphofructokinase, liver type)", "CDH1-null / parental viability ratio": 0.96}
{"gene knocked down": "HAS1 (hyaluronan synthase 1)", "CDH1-null / parental viability ratio": 1.48}
{"gene knocked down": "SERPINE2 (serpin family E member 2)", "CDH1-null / parental viability ratio": 0.94}
{"gene knocked down": "VN1R5 (vomeronasal 1 receptor 5 (gene/pseudogene))", "CDH1-null / parental viability ratio": 0.87}
{"gene knocked down": "KCNH3 (potassium voltage-gated channel subfamily H member 3)", "CDH1-null / parental viability ratio": 1.25}
